# Data from article PMC4790295.
# How the values were obtained:
# Assay in all cases: pull-down; 2 μg GST-tagged protein on GSH-sepharose 4B, blocked with BSA; 2 μg His6-tagged protein added, 1 h at room temperature in 40 mM Tris-HCl pH 7.5, 10 mM MgCl2, 1 mM DDM, 0.2% BSA; washed with 50 mM NaCl; Western blot with anti-SA2056 or anti-His6; both purified
# [1] = molecular target: T1, GST-FemA (Staphylococcus aureus) (UniProt P0A0A5)
# T1 sequence: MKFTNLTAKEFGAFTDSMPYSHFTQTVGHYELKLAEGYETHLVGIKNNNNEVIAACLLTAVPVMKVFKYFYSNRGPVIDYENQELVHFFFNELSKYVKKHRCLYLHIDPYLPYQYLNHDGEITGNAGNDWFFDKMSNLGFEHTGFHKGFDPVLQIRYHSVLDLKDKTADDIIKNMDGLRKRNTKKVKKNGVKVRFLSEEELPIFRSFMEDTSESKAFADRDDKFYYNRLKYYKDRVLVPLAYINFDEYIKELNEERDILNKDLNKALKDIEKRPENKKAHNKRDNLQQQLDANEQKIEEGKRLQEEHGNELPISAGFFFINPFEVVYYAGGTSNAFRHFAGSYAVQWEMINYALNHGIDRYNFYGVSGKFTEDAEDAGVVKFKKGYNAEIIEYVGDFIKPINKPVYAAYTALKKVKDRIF
# [2] = molecular target: T2, GST-FemB (Staphylococcus aureus) (UniProt Q2FYR1)
# T2 sequence: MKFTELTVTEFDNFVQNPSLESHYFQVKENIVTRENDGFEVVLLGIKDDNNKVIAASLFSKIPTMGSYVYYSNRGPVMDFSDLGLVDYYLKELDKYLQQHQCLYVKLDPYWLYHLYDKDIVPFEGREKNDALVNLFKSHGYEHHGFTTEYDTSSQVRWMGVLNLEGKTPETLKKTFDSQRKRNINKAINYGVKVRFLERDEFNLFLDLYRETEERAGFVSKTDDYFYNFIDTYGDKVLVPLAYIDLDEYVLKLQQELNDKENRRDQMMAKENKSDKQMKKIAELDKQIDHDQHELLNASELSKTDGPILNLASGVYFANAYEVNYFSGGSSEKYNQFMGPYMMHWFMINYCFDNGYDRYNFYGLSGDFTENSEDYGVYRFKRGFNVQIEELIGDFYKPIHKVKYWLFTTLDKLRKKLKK
# [3] = molecular target: T3, GST-FemX (Staphylococcus aureus) (UniProt Q2FVZ4)
# T3 sequence: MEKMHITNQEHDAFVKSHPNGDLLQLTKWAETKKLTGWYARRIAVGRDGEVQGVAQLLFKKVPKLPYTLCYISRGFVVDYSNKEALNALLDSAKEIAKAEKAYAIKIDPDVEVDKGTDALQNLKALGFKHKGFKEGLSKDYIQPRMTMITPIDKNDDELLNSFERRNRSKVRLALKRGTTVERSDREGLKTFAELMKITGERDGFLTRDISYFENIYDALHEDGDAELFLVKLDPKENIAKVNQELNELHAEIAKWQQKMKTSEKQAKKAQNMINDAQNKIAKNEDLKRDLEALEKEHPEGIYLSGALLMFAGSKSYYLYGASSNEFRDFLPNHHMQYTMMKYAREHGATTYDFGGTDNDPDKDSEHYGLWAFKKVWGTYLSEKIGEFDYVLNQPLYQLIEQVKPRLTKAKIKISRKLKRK
substance,measurement,setting,value
SA2056-His6 (Staphylococcus aureus),binding,[1],binds weakly
same,binding,[2],binds
same,binding,[3],binds weakly

# These are yes or no findings as the source states them, for the method shown. A result given as binding can be weak or reduced; the word gives no strength. Where a sequence is shown, tags or fusion partners need not be part of it.
